In all, about 31,000 sequences went through this assay and about 1,400 (4.5%) were called active.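 The calls were made as follows: active = median seed-adjusted z-score above 1 or below -1; inactive = the rest.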 The list shows a part of the results.

The assay in a line: Novel Modifiers of Survival Motor Neuron (SMN) Protein: Gene Identification via Genome-wide siRNA Screen.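 Also: luminescence tracks full-length SMN protein made from the SMN2 reporter.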 As to conditions: HEK293T SMN2-luciferase reporter, siRNA knockdown, 72 h; actives lie on both sides. Put shortly: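 siRNA screen, 10418 genes ×3 siRNAs; 1 pmol/well, lipid reverse transfection into HEK293T SMN2-luc reporter line. 72 h, 37 °C, 5% CO2; ONE-Glo readout. Data: neg-ctrl normalized, log10, MAD; hit = MAD >1.0 or < -1.0.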
As to GGAUCCCUAUGUUCGGAAATT against AP2B1, the median seed-adjusted z-score is inactive: -0.214. In the case of CGAGGAUUUCGGUCAACAATT against B3GALT2 it was inactive: 0.031; in that of GGACGGCUGCAAUCAAUGATT against IGF2R, inactive: 0.274; in that of CGCCGACUCUAUUCAUGCATT against RAB22A, inactive: 0.321. With CCACCGCUCUUUAACAUGATT against TAOK2, the median seed-adjusted z-score is inactive: 0.28.

Turning to CAAAUGGAGUGGACCUGAATT against CPN1, the median seed-adjusted z-score was inactive: 0.17. Regarding GCAACACCUCUGAUCCUGATT against MTMR4, the median seed-adjusted z-score is inactive: -0.735. Consider GAAAGAGCAUAAGGACGAATT against HOXA7, for which the median seed-adjusted z-score was inactive: -0.129. Turning to GGUACUUUGUGGUUAGUCUTT against MLSTD2, the median seed-adjusted z-score was inactive: -0.294. Turning to GAUAUGACUCAUCCAUUAATT against PLCZ1, the median seed-adjusted z-score is inactive: 0.

As for AGAAAGGGCUGACAGAUGATT against PEX14, the median seed-adjusted z-score was inactive: 0.844. Regarding CUUUAGAAGUUAUCAGGAATT against CAMK2N1, the median seed-adjusted z-score was inactive: 0. In the case of CCCUCGUGGUGUUUGCUGUTT against SLC6A17 it was inactive: -0.41; in that of GCAAUACACCUACCCAUAUTT against ARIH2, inactive: 0.0449; in that of GGAAAUACCAGGAACAAGATT against RRAS, inactive: -0.102. With AAUUCGCACUGGAGAGAAATT against ZNF43, the median seed-adjusted z-score was inactive: 0.29. For GGAAGUUCGUAGUUUAGAATT against CDON the value was inactive: 0.777. On to GAGUCUACAGUUAUACCAATT against PRKAA1, for which the median seed-adjusted z-score is inactive: 0.0423. As for GAACGAUAUUGAACAGCUUTT against CCRK, the median seed-adjusted z-score is inactive: -0.47.

Consider CCUGGAGAGUUACUUUGAATT against CCL23, for which the median seed-adjusted z-score is inactive: -0.285. In the case of GGAAAUUGAUAGCAUACUATT against MXRA5 it was inactive: 0.104.

On to GAACCCACCUAUUGCCUUUTT against ING4, for which the median seed-adjusted z-score was inactive: -0.152. As to CCUACAAGAUGUGCCCUAUTT against CSDC2, the median seed-adjusted z-score is inactive: -0.321. Consider GAUUUGCACUCAGACAGAUTT against HIPK1, for which the median seed-adjusted z-score is inactive: 0.69. For GCAUGUCUCUAAUAUUCCUTT against RBM9 the value was inactive: 0.895; for GACCAGCAAUGCCUACGUATT against FLRT1, inactive: -0.00451. ACGGCAAGGUGUUCGAUGUTT against PGRMC1: the median seed-adjusted z-score was inactive: 0.124. Turning to GAGGCUCAGUGUGGACAAATT against LMAN1, the median seed-adjusted z-score is inactive: -0.118. For UGAAAUACUUCAUACAUUATT against MORF4L1, the median seed-adjusted z-score is inactive: 0.225. In the case of GACUUUGAGUCUAACGUGATT against ST3GAL1 it was inactive: 0.255; in that of GCUCAAGAAGAGAUCUAUATT against GNL2, inactive: 0.739.

On to GAUUUACCCAAAUCACUCATT against G6PC2, for which the median seed-adjusted z-score is inactive: -0.0362.

With GGAUGCUUCGGAUGAGUUUTT against AK7, the median seed-adjusted z-score is inactive: -0.702.

Turning to GAGUCGCUUUAGCUCCGAATT against XPNPEP2, the median seed-adjusted z-score is inactive: -0.158. Take GAGUGAGCCUUUAAAUCAUTT against ZNF652: the median seed-adjusted z-score is inactive: 0.

For GCCUUGCGAAGUUUCAAGATT against STAT4, the median seed-adjusted z-score was inactive: 0.734.

With GAAUCUCAAUUCCUUCUUUTT against RAPGEF3, the median seed-adjusted z-score was inactive: -0.481. Turning to AGAUCAAGGUUCCGACGCATT against ABHD6, the median seed-adjusted z-score was inactive: 0. As to GGAUCGAUUAUAACCGCUUTT against TYW1, the median seed-adjusted z-score was inactive: 0.201. For GCCUAUUUAUAUCCUGGUATT against GPR84, the median seed-adjusted z-score was inactive: 0.285. With GUACAUCCAGAUGAGCAUATT against TMEM147, the median seed-adjusted z-score was inactive: 0.233.

Regarding CUCUGUACUUGAUAUUUCATT against MS4A2, the median seed-adjusted z-score was inactive: 0.155. For GCAUUCCAGAGGAUCAUGATT against PDE12, the median seed-adjusted z-score was inactive: 0.422. Consider AGGCUGUGAUUAAGAGCCATT against LDB3, for which the median seed-adjusted z-score was inactive: 0. Consider GCAUCAAAACUUAAUCAGATT against ILKAP, for which the median seed-adjusted z-score is inactive: 0.

UUAUCAUCGUCCAAGUUUATT against CCL25: the median seed-adjusted z-score was inactive: 0.0698.

Regarding GCAGUAAUAUAGUUCCGGUTT against IL18R1, the median seed-adjusted z-score was inactive: -0.206. For GGUGGUCCAUGAAAAAGCATT against SOD1, the median seed-adjusted z-score was inactive: -0.8.

As to GGAGGAUCGUGAAUGACGATT against DPYSL4, the median seed-adjusted z-score was inactive: 0.71.

Consider GAACAGCCUCGAUGUCAAATT against TMPRSS4, for which the median seed-adjusted z-score is inactive: -0.54.

On to CAUUCACGAUCUUCCCGUATT against MYO16, for which the median seed-adjusted z-score was inactive: -0.072. For GAGAUGAACGUGUAAAGAATT against CIR the value was inactive: -0.197; for CAUGGGAUCGAGUACAUUUTT against CPA5, inactive: 0.141; for GCGAAAUGAUAACUUCUAATT against XRN1, inactive: 0.522. Consider GGAGCUCGGUGAAUUCAAGTT against LARP6, for which the median seed-adjusted z-score was inactive: 0.0335.

GGUUUUCUUAUGACACUUUTT against RNF114: the median seed-adjusted z-score is inactive: 0.452.

As for GAAUUGGACAUUUCGGAUATT against NEK10, the median seed-adjusted z-score is inactive: -0.0464. In the case of GUACCCAGCUACAACAGAATT against WHSC1L1, the median seed-adjusted z-score was inactive: -0.283.

On to CCGUUGUAAUGAAUGUAAATT against ZNF221, for which the median seed-adjusted z-score was inactive: -0.536. For AGGCUCUACUUAGAAGACATT against VIPR2, the median seed-adjusted z-score is inactive: 0.706. Regarding GCUCUGGUAUUAACCUGGATT against RAMP1, the median seed-adjusted z-score is inactive: -0.031.

On to GGAAGAUUAUUACAGUCGATT against RERE, for which the median seed-adjusted z-score is inactive: 0.129. In the case of CACGACAAGUGGUACAAGATT against GRIN3B, the median seed-adjusted z-score is inactive: 0.39.

Regarding AGGGUUACUUUGUCCAGAATT against GUSB, the median seed-adjusted z-score was inactive: -0.542.

For GGUCACACGUUACAUGCUATT against CNTNAP1, the median seed-adjusted z-score was inactive: 0.176.

In the case of GGCUCAACAUUUCAGAUGUTT against PCDHGC5, the median seed-adjusted z-score is inactive: -0.0264.

Take CCUAGUGUCUAUCCGUAUATT against ZBTB38: the median seed-adjusted z-score is inactive: 0.448. As to CUUCAGCAGUUGUUCAGCATT against CHSY3, the median seed-adjusted z-score is inactive: -0.113. For GCAAAACCGAGAAAAACGATT against HSD11B1L the value was inactive: -0.00448; for CAGGAAGAAUUGAACUUGUTT against CCL23, inactive: -0.285. For the sequence CAUUGAAGGGUUCGAAAUATT against MTM1, the median seed-adjusted z-score is inactive: 0.406. With GGAGUCAAGUGAAGCAGAATT against L3MBTL2, the median seed-adjusted z-score is inactive: -0.312. For GGGUAACUGUUGAUAACCATT against POGK the value was inactive: 0.938; for GCAAUAAGAGAGAUCAGUATT against PDSS1, inactive: -0.287; for CGGUGCCUACAAUGCCUUUTT against EFEMP2, inactive: -0.143. AGACCAAGAUGACGAUGAATT against TRIM52: the median seed-adjusted z-score was inactive: 0.00966.

In the case of GGGAACUUCUUGUUAUGAATT against ARNTL2, the median seed-adjusted z-score is inactive: 0.102.

Take CCCUGAAGGUCCUAGUGGATT against CDKN2D: the median seed-adjusted z-score is inactive: -0.455. For the sequence UCCACAAGGUGAAAACAGATT against PPYR1, the median seed-adjusted z-score was inactive: 0.589.

As to CACCUAUUGAGUAUCCAAATT against ETFDH, the median seed-adjusted z-score was inactive: 0.154.

Regarding AGAGGAUCCUGAACUCCAATT against MYO19, the median seed-adjusted z-score was inactive: 0.0987. As for GAACAUCAGUUCUACGAGATT against IP6K2, the median seed-adjusted z-score was inactive: -0.193.

For UCGAGGAAAUGAUCCGGGATT against GALE, the median seed-adjusted z-score was inactive: -0.153. Regarding GAUAAAGUUGGAACAGAUATT against EEF1B2, the median seed-adjusted z-score was inactive: 0.388. As for GAACAAAAUAUUAUCCGAATT against PTF1A, the median seed-adjusted z-score is inactive: 0.482. For GAACGGCUAUGUGCGUUUATT against BMPR2, the median seed-adjusted z-score is inactive: 0. Regarding AGGUUUACACGGUCGUGGATT against AP2S1, the median seed-adjusted z-score was inactive: 0.146. On to UGCUCUACUUCUUAAGUGATT against STARD8, for which the median seed-adjusted z-score was inactive: -0.135.

Take CACUCAUUCAGUUCGAAGATT against ME2: the median seed-adjusted z-score was inactive: -0.0557.

With CGAACUACUCUUAAGCUUUTT against TRPC4, the median seed-adjusted z-score is inactive: -0.272.

Consider GGAGAGCACCUAUCAGCAATT against RPA2, for which the median seed-adjusted z-score is inactive: -0.0957. Consider GCAGAGGUACUAUUGAAAUTT against CRYZ, for which the median seed-adjusted z-score was inactive: -0.809.

As for GGCCUUUCAUUAUAGAUCATT against ZNF624, the median seed-adjusted z-score was inactive: 0.378. For GAAUGUGACUGACACGGAUTT against LOC647743 the value was inactive: -0.203.

For the sequence CUACUGUCCUGAUGUAUCATT against MYF5, the median seed-adjusted z-score is inactive: -0.786. On to GGAUUUCGAAGGAGAUUCATT against INPP5E, for which the median seed-adjusted z-score was inactive: -0.0321. AAGACGCAAUGGGAAACAGTT against FAHD2B: the median seed-adjusted z-score is inactive: 0.154. For the sequence GAAUGUUCUGUGCCGGAUATT against TMPRSS11A, the median seed-adjusted z-score was inactive: 0.

With GCUUGGGUGAAGAACCACATT against SLC22A13, the median seed-adjusted z-score was inactive: 0.904. For the sequence CGGGUACUCUAUUUCCGUUTT against PCDHB4, the median seed-adjusted z-score is inactive: 0.00998.

Regarding UGUCAGGCCUGAUUAUCUATT against SOD2, the median seed-adjusted z-score was inactive: -0.558. For GGAUGUAGUAAUUACUAUATT against CPVL, the median seed-adjusted z-score is inactive: 0.334. As for ACACGGCCGUCAUCCUUGUTT against NPBWR2, the median seed-adjusted z-score was inactive: 0.438. Consider GGAUAGUGGUUCUAUGACUTT against KRT86, for which the median seed-adjusted z-score was inactive: -0.689. Turning to GCGCGGAAAACGUGACUUUTT against RGS14, the median seed-adjusted z-score was inactive: 0.655. For GGAUUGUGAGGACUAUUUUTT against ANXA13 the value was inactive: -0.467; for GAAGUUCGGUCGAACCACATT against CST5, inactive: 0.466.
